Part of at least one peptide drawing is inferred or uncertain, most often the ends. Ends that are not written are not given here.
Test system: guinea pig ileum strips
Assay: Contraction of guinea pig ileum strips in Tyrode's solution
Type: cell-based
Conditions: Table II, full contraction

NKPLGLAR [Asn-Lys-Pro-Leu-Gly-Leu-Ala-Arg]
Ileum Activity (amount of peptide per 10 ml of Tyrode's solution to fully contract a guinea pig ileum strip): 14 to 27 nmol
